PubChem BioAssay AID652243, Drosophila RNAi Screening Center, 2013
Assay: 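Fly regulators of androgen-dependent reporter output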 (primary screen). Cell system: Drosophila S2R+ cells. Knock-down reagent: long dsRNA against Drosophila genes. Time to read-out: 72 h (48 h, then 24 h hormone). Conditions: synthetic androgen R1881 at 10 nM for 24 h. Detection: 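Firefly light from an androgen-responsive reporter and Renilla control light per well, raw and unnormalised, for each of two replicates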. Scale: firefly reporter light: higher = more light from androgen-responsive reporter; Renilla control light: higher = more constitutive control signal (cell number, transfection). Hit rule: 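Across duplicate plates, a knock-down whose log firefly/Renilla ratio shifted a set fold down or up from the GFP/LacZ control mean was a hit; the downward cut appears as both 1.5 and 3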. Calls: active = hit: reporter lowered or raised; inactive = no hit.
In all, the deposit lists about 24,000 reagents; below is an unselected part of those that have a named target and a result. Over the whole deposit, 246 (1%) are marked active. 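Plates not normalised; calls are printed but the firefly/Renilla ratio behind them is not deposited; fold cut for lowering reported inconsistently.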 Raw values vary from plate to plate and are shown uncorrected. A number with no mark means an inactive call. The numbers tell different reagents against one gene apart. Names joined by + are all predicted targets of the reagent. Not stated in the record: the amount of reagent.

gene,reagent,"firefly reporter light, replicate 1","firefly reporter light, replicate 2","Renilla control light, replicate 1","Renilla control light, replicate 2"
Rbp9 (RNA-binding protein 9),1,85003,1.13e5,4.96e5,8.77e5
Rbp9 (RNA-binding protein 9),2,6.06e5,4.85e5,9.52e5,5.04e5
Rbp9 (RNA-binding protein 9),3,6.70e5,3.84e5,1.31e6,1.33e6
CR18275 + CR18166 + CG32817,1,3.63e5,5.13e5,7.73e5,4.64e5
Obp69a (Odorant-binding protein 69a),1,1.80e5,1.40e5,1.92e6,1.59e6
Obp69a (Odorant-binding protein 69a),2,2.20e5,2.16e5,4.02e5,5.99e5
CG8093,1,87990,95700,1.17e6,1.17e6
CG7058,1,2.41e5,1.25e5,1.17e6,5.52e5
CG7058,2,3.01e5,2.40e5,5.20e5,4.41e5
Acp65Aa (Adult cuticle protein 65Aa),1,1.55e5,1.16e5,2.16e6,1.55e6
Acp65Aa (Adult cuticle protein 65Aa),2,3.62e5,2.51e5,6.16e5,6.33e5
Dnz1 (DNZDHHC/NEW1 zinc finger protein 11),1,9.41e5,8.45e5,2.34e6,1.80e6
Dnz1 (DNZDHHC/NEW1 zinc finger protein 11),2,5.31e5,5.87e5,4.73e5,6.63e5

2 of these entries, reformatted:
CG8093 → firefly reporter light, replicate 1: 87990; firefly reporter light, replicate 2: 95700; Renilla control light, replicate 1: 1.17e6; Renilla control light, replicate 2: 1.17e6
CG7058 #1 → firefly reporter light, replicate 1: 2.41e5; firefly reporter light, replicate 2: 1.25e5; Renilla control light, replicate 1: 1.17e6; Renilla control light, replicate 2: 5.52e5

Next entries:
gene,reagent,"firefly reporter light, replicate 1","firefly reporter light, replicate 2","Renilla control light, replicate 1","Renilla control light, replicate 2"
CG33626,1,4.05e5,3.32e5,1.11e6,8.42e5
CG10300,1,1.86e5,2.08e5,3.24e6,2.90e6
Fad2,1,52280,60467,1.05e6,9.55e5
Fad2,2,6.23e5,4.51e5,6.90e5,5.74e5
CG14321,1,2.98e5,1.29e5,3.31e6,2.20e6
CG14321,2,4.42e5,2.75e5,9.94e5,5.34e5
Syx5 (Syntaxin 5),1,1.07e6,1.13e6,1.70e6,1.67e6
PolG1 (DNA polymerase gamma subunit 1),1,2.57e5,3.01e5,2.14e6,2.36e6
PolG1 (DNA polymerase gamma subunit 1),2,3.62e5,3.27e5,9.08e5,9.08e5
Cyp4ac2 (Cytochrome P450 4ac2),1,2.02e5,2.34e5,1.56e6,1.50e6
CG13053,1,2.12e5,2.53e5,2.71e6,1.98e6
